pIC50: −log10 of the molar value. Some results were stated once for a whole list of compounds, not compound by compound. For at least one compound, name, drawing or mass did not settle the structure.
Tests used:
Format in all cases: cell-based
EN-11-0101 = experiment: Cell viability, endometrial PDX EN-11-0101; conditions: Table 8; read-out: IC50, endometrial PDX growth
Method: (§1) PDX-derived cell cultures were obtained from tumors explanted from mice and isolated by mechanical and enzymatic dissociation. […] Cells were harvested and seeded in 96-wells plates at a density of 1.25 to 5×10^3 cells/well for cytotoxicity assays. Cells were incubated 48 h at 37° C. prior to addition of test molecules and vehicle (DMSO, 0.1%) at desired final concentrations. Cell viability was assessed before drugs' addition (To) and 5 days after test molecules addition by measuring ATP cell content using CellTiter-Glo® Luminescent Cell Viability Assay (Promega) according to the manufacturer's instructions. Luciferase activity was measured on a luminometer (PerkinElmer® EnVision™). Each concentration of compounds was tested in triplicate.
(§2) Viability was calculated as a percentage of ATP value compared to vehicle treated controls.
(§3) For PDX primary cell cultures, the tumour tissue was washed with PBS containing antibiotic-antimycotic and non-tumour tissue and necrotic tumour tissues were separated. The tumour tissue was transferred to a new dish and cut into 1˜2 mm^3 fragments, resuspended in RPMI-1640 medium and centrifuged at 1,200 rpm for 6 min at room temperature. The pelleted material was resuspended with 15 mL of Tumour Cell Digestion Solution and incubated at 37° C. for 1 hour with agitation. […]

HN-13-0020 = experiment: Cell viability, head and neck PDX HN-13-0020; conditions: summary of Table 10; read-out: IC50, head and neck PDX growth
Method: as §1, §2, §3

HL-60 = experiment: Cell viability assay, HL-60; conditions: summary of Table 12; read-out: IC50, leukaemia cell growth
Method: (§4) Antitumor activity of the compounds and doxorubicin as a positive control was assessed by using the CellTiter-Blue Cell Viability Assay (Promega, #G8082) or CellTiter-Glow® Luminescent Cell Viability assay (Promega #G7572) according to the manufacturer's instructions. The compounds were tested at 5 or 6 concentrations in half-log increments (highest concentration 30 μM or 100 μM) in duplicate or triplicate well conditions.
(§5) Tumor cells were grown at 37° C. in a humidified atmosphere with 5% CO2 in RPMI 1640 or DMEM medium, supplemented with 10% (v/v) fetal calf serum and 50 μg/ml gentamicin for up to 20 passages, and were passaged once or twice weekly. Cells were harvested using TrypLE or PBS buffer containing 1 mM EDTA, and the percentage of viable cells was determined using a CASY Model TI cell counter (OMNI Life Science). Cells were harvested from exponential phase cultures, counted and plated in 96 well flat-bottom microtiter plates at a cell density depending on the cell line's growth rate (4,000-20,000 cells/well depending on the cell line's growth rate, up to 60,000 for hematological cancer cell lines) in RPMI 1640 or DMEM medium supplemented with 10% (v/v) fetal calf serum and 50 μg/ml gentamicin (140 μl/well). […] Viability of cells was quantified by the CellTiter-Blue® cell viability assay (Promega G8081) or CellTiter-Glow® Luminescent Cell Viability assay (Promega #G7572). […]

LY-24-0340 = experiment: Cell viability, lymphoma PDX LY-24-0340; conditions: Table 16; read-out: IC50, lymphoma PDX growth
Method: as §1, §2, §3

bile duct PDX = experiment: Cell viability, bile duct PDX (panel statement); conditions: summary of Table 3; read-out: IC50, bile duct PDX growth
Method: as §1, §2, §3

brain cancer cell = experiment: Cell viability, brain cancer cells (panel statement); conditions: text summary of Tables 3A-3C; read-out: IC50, brain cancer cell growth
Method: as §4, §5

breast cancer cell = experiment: Cell viability, breast cancer cells (panel statement); conditions: text summary of Tables 4A & 4B; read-out: IC50, breast cancer cell growth
Method: as §4, §5

breast PDX = experiment: Cell viability, breast PDX (panel statement); conditions: Table 5; read-out: IC50, growth of breast PDX
Method: as §1, §2, §3

colon PDX = experiment: Cell viability, colon PDX (panel statement); conditions: text summary of Table 7; read-out: IC50, growth of colon PDX
Method: as §1, §2, §3

esophagus PDX = experiment: Cell viability, esophagus PDX (panel statement); conditions: text summary of Table 9; read-out: IC50, esophagus PDX growth
Method: as §1, §2, §3

lung PDX = experiment: Cell viability, lung PDX (panel statement); conditions: text summary of Table 15; read-out: IC50, lung PDX growth
Method: as §1, §2, §3

ovarian cancer cell = experiment: Cell viability, ovarian cancer cells (panel statement); conditions: Table 17; read-out: IC50, ovarian cancer cell growth
Method: as §4, §5

pancreatic cancer cell = experiment: Cell viability, pancreatic cancer cells (panel statement); conditions: text summary of Tables 18A and 18B; read-out: IC50, pancreatic cancer cell growth
Method: as §4, §5

pancreatic PDX = experiment: Cell viability, pancreatic PDX (panel statement); conditions: Table 19; read-out: IC50, pancreatic PDX growth
Method: as §1, §2, §3

stomach PDX = experiment: Cell viability, stomach PDX (panel statement); conditions: text summary of Table 22; read-out: IC50, stomach PDX growth
Method: as §1, §2, §3

Structure (SMILES): O=c1cc(-c2ccc(CCC[P+](c3ccccc3)(c3ccccc3)c3ccccc3)cc2)oc2c(O)c(O)ccc12 [SND200, (3-(4-(7,8-Dihydroxy-4-oxo-4H1-chromen-2-yl)phenyl)propyl)triphenylphosphonium bromide]
- pIC50 (EN-11-0101): > 4.70
- pIC50 (HN-13-0020): > 5.30
- pIC50 (HL-60): > 6.00
- pIC50 (LY-24-0340): > 5.30
- pIC50 (bile duct PDX): > 5.00
- pIC50 (brain cancer cell): > 4.70
- pIC50 (breast cancer cell): > 5.30
- pIC50 (breast PDX): > 4.70
- pIC50 (colon PDX): > 4.70
- pIC50 (esophagus PDX): > 4.70
- pIC50 (lung PDX): > 4.70
- pIC50 (ovarian cancer cell): > 4.70
- pIC50 (pancreatic cancer cell): > 4.70
- pIC50 (pancreatic PDX): > 5.00
- pIC50 (stomach PDX): > 4.70
